Test results published in PubChem BioAssay AID1347076 (National Center for Advancing Translational Sciences (NCATS), 2019).
“And” between values parts separate entries of the source, which are not always exact repeats. Equal values may be shown once. Screen size: about 400,000 compounds; about 13,000 (3.2%) were called active. Inconclusive results, whose numbers are uncertain, are shown with a selection of clear calls. Calls follow the shape of the dose curve; as a rule, active = well fitted cell-killing curve with a large enough effect; inconclusive = small, poorly fitted or top-dose-only effect, or effect the other way; inactive = flat fitted curve, though single readings scatter. A potency beside an inconclusive call is a rough fit, not a confirmed value. Some compounds were tested as several samples or in several runs, with calls that do not always agree.

Assay: qHTS assay for MDR1-selective chemotherapeutics: Primary screen using the drug-selected MDR subline cells KB-V1; also: nearly all actives have a fitted effect of over 60% in size
Conditions: KB-V1 MDR cells viability, CellTiter-Glo, 72 h; activity change, negative = cytotoxicity: at 46.1 µM (top of the series)
Summary of the method: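 KB-V1 cells (P-gp-expressing MDR subline of KB-3-1) in phenol-red-free DMEM with 10% FBS were exposed to library compounds over a concentration series for 72 h at 37 degrees C. Viability read by CellTiter-Glo luminescence; concentration-effect curves fitted after normalization.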
% is scaled to controls: 0 for no effect and ±100 for the full control effect; potency is read from the fitted curve at half-maximal effect.

Compound | activity change, negative = cytotoxicity | Potency
COc1cc(C(=O)Nc2nc3ccc4nc(C)sc4c3s2)cc(OC)c1OC | inactive: 0.527% | –
Cc1c(Cl)cccc1Nc1ccccc1C(=O)O | inactive: 5.2% | –
CCCOc1ccc(N2C(=O)CC(N3CCC(C(=O)OCC)CC3)C2=O)cc1 (configuration not stated) | inactive: 0% | –
Cc1cccc(CCNC(=O)CCc2c(C)nc3c(c(C)nn3-c3ccccc3)c2C)c1 | – | inconclusive: 10.3 µM [cytotoxic, partial curve]
CC1Cc2ccccc2N1CC(=O)NC(c1ccccc1)c1ccccc1 (configuration not stated) | – | inconclusive: 7.31 µM [cytotoxic, partial curve]
COC(=O)c1ccccc1NC(=O)COc1ccc(S(=O)(=O)N2CCCC2)cc1C | – | inconclusive: 20.6 µM [cytotoxic, single point]
CCOC(=O)c1cc2c(=O)n3ccccc3nc2n(C(C)C)c1=NC(=O)c1c(-c2c(F)cccc2Cl)noc1C | – | inconclusive: 29.1 µM [cytotoxic, single point] and inconclusive: 32.6 µM [cytotoxic, single point]
Cc1[nH]c2ccc(C(=O)N3CCC(C(N)=O)CC3)cc2c1C | – | inconclusive: 16.4 µM [rising, partial curve, poor fit]
Cc1c(Cl)cccc1NC(=S)N1CCN(Cc2ccc3c(c2)OCO3)CC1 | inactive: -10.5% | –
Cc1ccc(Cl)cc1N1CCN(C(=O)c2cn(C)c(=O)c3c2c2ccccc2n3C)CC1 | – | inconclusive: 23.1 µM [cytotoxic, partial curve, poor fit]
CC(C)c1ccc(C(=O)N2CCCC(c3cc(C(=O)Nc4ccccc4Cl)no3)C2)cc1 (configuration not stated) | – | inconclusive: 25.9 µM [cytotoxic, single point]
CCC1CCCCN1S(=O)(=O)c1ccc(C(=O)Nc2nnc(-c3cccs3)o2)cc1 (configuration not stated) | – | active: 5.01 µM
CCCCn1c(N)c(N(CC)C(=O)c2cnc(C)cn2)c(=O)[nH]c1=O | inactive: 0% | –
COc1ccc(Cl)cc1NC(=O)CCn1nc(C)cc1C | inactive: -7.04% | –
O=C1CCN(Cc2nnnn2CC2CCCO2)c2ccccc2N1 (configuration not stated) | inactive: 3.8% | –
CC(=O)Nc1cccc(-c2ccnc3c2CC(C(=O)NCc2ccc(N4CCN(C)CC4)cc2)O3)c1 (configuration not stated) | inactive: 2.63% | –
COCC(=O)Nc1nc2ccccc2s1 | inactive: 13.3% | –
CCCc1nccn1S(=O)(=O)c1cc(OC)ccc1OC | inactive: 19.3% | –
c1ccc(-n2nnc(-c3cccnc3)n2)cc1 | inactive: 5.44% | –
CSCCC(NC(=O)c1ccc(Cl)cc1Cl)C(=O)NCc1ccccn1 (configuration not stated) | – | inconclusive: 29.1 µM [cytotoxic, single point]
CCn1c(O)c(C=Nc2ccccc2)n(-c2ccccc2)c1=S | – | inconclusive: 20.6 µM [cytotoxic, partial curve, poor fit]
COc1ccccc1NC(=O)N(C)C[C@@H]1OCc2cnnn2CCCC(=O)N([C@H](C)CO)C[C@H]1C | inactive: -1.25% | –
CC1CC(C)CN(C(=O)COC(=O)c2ccc3c(c2)C(=O)N(Cc2ccco2)C3=O)C1 (configuration not stated) | – | inconclusive: 20.6 µM [rising, partial curve, poor fit]
CC(=O)Nc1ccc(NC(=O)CCN2C(=O)c3ccccc3C2=O)cc1 | inactive: -16.3% | –

Compound | activity change, negative = cytotoxicity | Potency
Cc1noc(C)c1NC(=O)N(C)C[C@@H]1OCc2cnnn2CCCC(=O)N([C@H](C)CO)C[C@@H]1C | inactive: 20.5% | –
N/C(=N\OC(=O)CCCOc1ccccc1)c1ccncc1 | – | inconclusive: 14.6 µM [rising, single point]
COC(=O)c1[nH]c2c(c1C)C(=O)CC(c1cccc(OC)c1)C2 (configuration not stated) | – | inconclusive: 0.651 µM [cytotoxic, full curve, poor fit]
O=C(CCS(=O)(=O)c1ccccc1)N1CCN(c2ccccc2F)CC1 | – | inconclusive: 18.4 µM [cytotoxic, single point]
CN(C)c1ccc(/C=C2\CCCCC2=O)cc1 | – | inconclusive: 7.31 µM [rising, partial curve, poor fit]
Cc1cc(C(=O)CN2C(=O)C(=O)N(C3CCCC3)C2=O)c(C)n1CCc1ccccc1 | – | inconclusive: 11.6 µM [cytotoxic, partial curve]
COc1ccc(-c2nc(SCC(=O)Nc3ccc4c(c3)OCO4)c(-c3ccccc3)[nH]2)cc1 | inactive: -2.32% | –
O=C(NCCC1CCCCN1S(=O)(=O)c1ccc(Cl)cc1)C(=O)NCc1ccncc1 (configuration not stated) | inactive: 0% | –
CCOc1ccc(-c2[nH]ncc2-c2ccc(OC)c(OC)c2)c(O)c1 | – | active: 3.66 µM
Cc1ccsc1C(=O)Nc1nccs1 | inactive: 9% | –
O=c1c2ccccc2nc(/C=C/c2c[nH]c3ccccc23)n1CCO | – | inconclusive: 16.4 µM [cytotoxic, single point]
CCN(CC)S(=O)(=O)c1cc(NC(=O)CCCOc2ccc(C(C)=O)cc2)ccc1C | – | active: 2.91 µM
CCn1cc(CNC(=O)c2cc(COc3ccc(F)cc3Cl)on2)cn1 | – | inconclusive: 29.1 µM [cytotoxic, single point]
COc1ccccc1NC(=O)C1=C(C)Nc2nc(-c3ccco3)nn2C1c1ccccc1 (configuration not stated) | – | inconclusive: 3.26 µM [rising, full curve]
Cc1ccccc1NC(=O)c1c(NC(=O)c2ccncc2)sc2c1CCC(C(C)(C)C)C2 (configuration not stated) | – | inconclusive: 25.9 µM [cytotoxic, partial curve, poor fit]
O=C(c1ccc(S(=O)(=O)N2CCOCC2)cc1)N1CCN(c2ccccn2)CC1 | inactive: 0% | –
NC(=S)N=Nc1c(O)n(Cc2ccc(Br)cc2)c2ccccc12 | – | active: 4.61 µM
CCCCCC(=O)N1CC2(CC)CN(C(=O)CCCCC)CC(CC)(C1)C2=O | – | inconclusive: 2.31 µM [cytotoxic, full curve]
COc1ccc(C[C@H]2c3cc(O)c(OC)cc3CC[N+]2(C)[O-])cc1O (some centres not stated) | inactive: 0% | –
Cc1oc2c(c1C(=O)N1CCC(C)CC1)C(=O)c1ccccc1C2=O | – | active: 18.4 µM
CC1=C(C(=O)NC2CC(C)(C)Cc3c2cnn3-c2ccc(C)cc2)OCCO1 (configuration not stated) | inactive: -14.9% | –
O=C(COC(=O)c1cc([N+](=O)[O-])ccc1Cl)NC1CCCC1 | inactive: -17.4% | –
C[C@@]12CCC=C[C@H]1[C@H](c1ccc3ccccc3c1Br)N(Cc1ccccc1)C2=O | – | inconclusive: 18.4 µM [cytotoxic, single point]
CNS(=O)(=O)c1cc(-c2nn3c(C)nnc3c3ccccc23)ccc1C | inactive: 5.37% | –

As entered above.
Value for Cc1ccccc1NC(=O)c1c(NC(=O)c2ccncc2)sc2c1CCC(C(C)(C)C)C2 (configuration not stated) under Potency: inconclusive: 25.9 µM [cytotoxic, partial curve, poor fit]
Value for COc1ccc(-c2nc(SCC(=O)Nc3ccc4c(c3)OCO4)c(-c3ccccc3)[nH]2)cc1 under activity change, negative = cytotoxicity: inactive: -2.32%

Entries of single compounds, quoted from the list. Order of values: activity change, negative = cytotoxicity	Potency
N/C(=N\OC(=O)CCCOc1ccccc1)c1ccncc1 in the list: –	inconclusive: 14.6 µM [rising, single point]
Cc1oc2c(c1C(=O)N1CCC(C)CC1)C(=O)c1ccccc1C2=O in the list: –	active: 18.4 µM

(next part)

Compound | activity change, negative = cytotoxicity | Potency
Cc1cc2c(cc1C)CSC(c1ccccc1O)SC2 | – | active: 18.4 µM
CN(C)c1ccc(/C=C2\C=Cc3ccccc32)c(Cl)c1 | – | inconclusive: 29.1 µM [cytotoxic, single point]
Cc1ccc(N(CCC(=O)NC(C)(C)C)S(=O)(=O)c2ccc(C)cc2)cc1 | inactive: -2.93% | –
Cc1ccc(C2=NN(C3=NN=C(N)Cc4ncnn43)C(O)(C(F)(F)F)C2)cc1 (configuration not stated) | inactive: 17.9% | –
C/C(Cl)=C\Cn1c(N2CCCC2)nc2c1c(=O)n(C)c(=O)n2C | inactive: -2.78% | –
Cc1ccc2nc(-c3cccc(-c4cccc(Cl)c4)c3)c(NCc3ccccc3)n2c1 | – | inconclusive: 29.1 µM [cytotoxic, single point]
CCCn1cnnc1CNC(=O)[C@H]1O[C@@H](n2ccc(=O)[nH]c2=O)[C@H](O)[C@@H]1O | – | active: 18.4 µM
Cc1ccc(C)n1-n1cnc2sc(-c3ccccc3)cc2c1=O | – | inconclusive: 18.4 µM [cytotoxic, single point]
CCn1cc(C(=O)N2CCN(c3cc(Cl)ccc3C)CC2)c(=O)c2cc(S(=O)(=O)N3CCOCC3)ccc21 | inactive: -2.19% | –
CCCN(CC(=O)Nc1ccc(C(N)=O)cc1)CC(=O)Nc1ccccc1C | – | inconclusive: 29.1 µM [rising, single point]
Oc1ccc(N2CCN(Cc3cc4c(cc3Br)OCCO4)CC2)cc1 | – | inconclusive: 16.4 µM [cytotoxic, single point]
CS(=O)(=O)c1nc(S(=O)(=O)c2ccc(Cl)cc2)c(N2CCOCC2)s1 | inactive: -9.69% | –
Cc1ccc(C(=O)Nc2ccc3c(c2)CCC3)o1 | – | inconclusive: 18.4 µM [cytotoxic, single point]
COc1cc(/C=C(/C#N)c2nc3ccccc3[nH]2)ccc1OCC(=O)Nc1ccccc1C | – | active: 1.84 µM
CC(Nc1ccc(F)cc1F)C(=O)NC(=O)NC1CCCCC1 (configuration not stated) | – | inconclusive: 29.1 µM [cytotoxic, partial curve, poor fit]
CCn1cc(C(=O)O)c(=O)c2cnc(N3CCN(C(=S)Nc4ccccc4)CC3)nc21 | inactive: 1.6% | –
CC1=NOC(=O)/C1=C/c1ccc(O)cc1 | – | inconclusive: 2.06 µM [rising, full curve]
O=C(Nc1ccccc1)[C@@H]1CC=C[C@@H]2CCN(Cc3ccc(Cl)c(Cl)c3)C(=O)[C@@H]21 | – | active: 20.6 µM
O=C(NNC(=O)c1nn(-c2ccc(F)cc2)ccc1=O)Nc1cccc(Cl)c1 | – | inconclusive: 29.1 µM [rising, single point]
COc1cccc2sc(Nc3nc(-c4cc5ccccc5oc4=O)cs3)nc12 | – | active: 8.2 µM
CCOC(=O)C1CCN(C(=O)COC(=O)CSc2ccc([N+](=O)[O-])cc2)CC1 | – | inconclusive: 29.1 µM [rising, partial curve, poor fit]
Cc1cc(C(=O)N[C@H](c2ccccc2)[C@@]2(C)C[C@@H]2[C@@H](C)C(=O)Nc2ccc3ccccc3c2)no1 | – | inconclusive: 23.1 µM [cytotoxic, single point]
CC1(C(=O)Nc2ccc3[nH]ncc3c2)CCN1C(=O)C/C=C/c1ccccc1 (configuration not stated) | – | inconclusive: 20.6 µM [cytotoxic, partial curve, poor fit]
Cc1ccc(-n2c3c(c(=O)[nH]c2=O)C(NS(=O)(=O)c2ccc(C)cc2)(C(F)(F)F)C(=O)N3)cc1 (configuration not stated) | – | inconclusive: 18.4 µM [rising, single point]
